# Counter-ions that a name gives are not always drawn. The list shows a part of the results. Most values come without repeats; read them as rough.
# Columns and labels:
# [1] = test system: primary mouse Muller glia with Ascl1 overexpression; experiment: total cells recovered per well; higher = more cells recovered
# [2] = test system: primary mouse Muller glia with Ascl1 overexpression; experiment: progenitor-like (ProL) cell count fold change vs Ascl1-only control (log2 fold change); higher = more progenitor-like cells
# [3] = test system: primary mouse Muller glia with Ascl1 overexpression; experiment: Neuronal cell count fold change vs Ascl1-only control (log2 fold change); higher = more neurogenesis
smiles,measurement,setting,value
CC(=O)Nc1ccc(C(=O)Nc2ccccc2N)cc1 (collection day: 1),total cells recovered per well,[1]; 0.1 µM,76
same,total cells recovered per well,[1]; 1 µM,94
same,total cells recovered per well,[1]; 10 µM,67
CCCCCC[C@@H]([C@@H](C)O)n1cnc2c(N)ncnc21 [EHNA hydrochloride] (collection day: 1),total cells recovered per well,[1]; 0.1 µM,43
same,total cells recovered per well,[1]; 1 µM,51
same,progenitor-like (log2),[2]; 0.1 µM,0.628
same,progenitor-like (log2),[2]; 1 µM,0.585
CC1=C(C(=O)Nc2cc3cn[nH]c3cc2F)C(c2ccc(C(F)(F)F)cc2)CC(=O)N1 (configuration not stated) (collection day: 2),total cells recovered per well,[1]; 0.1 µM,68
same,total cells recovered per well,[1]; 1 µM,81
same,total cells recovered per well,[1]; 10 µM,66
CC(C)(C)c1ccc(S(=O)(=O)NCc2ccc(C(=O)Nc3cccnc3)cc2)cc1 (collection day: 2),total cells recovered per well,[1]; 0.1 µM,117
same,total cells recovered per well,[1]; 1 µM,80
"CCCC(=O)Nc1ncnc2c1ncn2[C@@H]1O[C@@H]2COP(=O)(O)O[C@H]2[C@H]1OC(=O)CCC [Dibutyryl-cAMP, sodium salt] (collection day: 1)",total cells recovered per well,[1]; 0.1 µM,74
same,total cells recovered per well,[1]; 10 µM,48
same,Neuronal cell count fold change,[3]; 0.1 µM,-0.184
same,Neuronal cell count fold change,[3]; 10 µM,-1.06
same,progenitor-like (log2),[2]; 0.1 µM,0.399
same,progenitor-like (log2),[2]; 10 µM,0.863
COc1cc2nc(N3CCCN(C)CC3)nc(NC3CCN(Cc4ccccc4)CC3)c2cc1OC (collection day: 2),total cells recovered per well,[1]; 0.1 µM,85
same,total cells recovered per well,[1]; 1 µM,61
NC(=O)c1cccnc1 [Nicotinamide] (collection day: 2),total cells recovered per well,[1]; 0.1 µM,112
same,total cells recovered per well,[1]; 1 µM,153
same,total cells recovered per well,[1]; 10 µM,132
same,Neuronal cell count fold change,[3]; 0.1 µM,0.3
same,Neuronal cell count fold change,[3]; 1 µM,-0.7
same,Neuronal cell count fold change,[3]; 10 µM,0.3
O=C(NC1CCOCC1)c1ccc(-c2cc(-c3c[nH]nc3-c3ccccn3)ccn2)cc1 (collection day: 2),total cells recovered per well,[1]; 0.1 µM,59
same,total cells recovered per well,[1]; 1 µM,62
same,total cells recovered per well,[1]; 10 µM,57
O=C(NO)c1ccc2[nH]c(=O)c(CCCc3ccccc3)nc2c1 (collection day: 2),total cells recovered per well,[1]; 0.1 µM,48
same,total cells recovered per well,[1]; 1 µM,52
same,total cells recovered per well,[1]; 10 µM,68

# Given as tab-separated lines: part of the list above
smiles	measurement	setting	value
COc1cc2nc(N3CCCN(C)CC3)nc(NC3CCN(Cc4ccccc4)CC3)c2cc1OC (collection day: 2)	total cells recovered per well	[1]; 0.1 µM	85
same	total cells recovered per well	[1]; 1 µM	61

# — the supplement of paper PMC11637464
